Results reported in patent US7799738B2, “Insecticidal 2-acylaminothiazole-4-carboxamides” (Bayer CropScience AG, priority 2005, dated 2010).
Some of these results come from one statement about several compounds together.

Tested on: Tetranychus urticae
Assay: Test for Tetranychus urticae (spray test)
Format: in vivo
Details: effective ingredient concentration 500 ppm, adults on butter bean leaves, after 7 days

Compound: Cc1cc(C(F)(C(F)(F)F)C(F)(F)F)cc(C)c1NC(=O)c1csc(NC(=O)c2cccc(Cl)c2)n1 [compound 67, 2-(3-chlorobenzoyl)amino-N-(2,6-dimethyl-4-heptafluoro-isopropylphenyl)-1,3-thiazole-4-carboxamide]
- insecticidal rate: ≥ 98%
